The results in this text go back to paper PMC6356859 (ACS Omega, 2019).

The test has as its system EBOV. The format is cell-based, Ebola virus.

`OCCN1CCN(CCCN2c3ccccc3Sc3ccc(C(F)(F)F)cc32)CC1` [Fluphenazine 2HCl] returned a selectivity indexes of under 5.
